# Laboratory results as given in publication PMC3605307.
# Results are given in words; binding and its absence hold for the method and conditions named. Some results given as binding are weak or reduced against the parent protein; the word gives no strength. Sequences can lack the tags named with a protein.
# B1: HCMV UL141 (residues 30–279), C-terminal hexa-histidine tag, of the crystallised complex (domain or fragment, UniProt Q6RJQ3 30-279)
# chain: SFPFATADIAEKMWAENYETTSPAPVLVAEGEQVTIPCTVMTHSWPMVSIRARFCRSHDGSDELILDAVKGHRLMNGLQYRLPYATWNFSQLHLGQIFSLTFNVSTDTAGMYECVLRNYSHGLIMQRFVILTQLETLSRPDEPCCTPALGRYSLGDQIWSPTPWRLRNHDCGMYRGFQRNYFYIGRADAEDCWKPACPDEEPDRCWTVIQRYRLPGDCYRSQPHPPKFLPVTPAPPADIDTGMSPWATRG
# Biological target: T1, HCMV UL141 (residues 30–279), C-terminal hexa-histidine tag, of the crystallised complex (human cytomegalovirus (HCMV), FIX strain) (UniProt Q6RJQ3)
# T1 sequence: B1 chain
# Test: crystal structure; both purified
binder,measurement,value
B1,binding,binds
